# The campaign covered roughly 300,000 compounds. About 3,700 (1.2%) were called active. Inconclusive results, whose numbers are uncertain, are shown with a selection of clear calls. Calls come from the whole dose curve; tested in HEK293 cells. Where the call is inconclusive, the potency comes from a doubtful curve fit.
# Assay: qHTS for Inhibitors of binding or entry into cells for Lassa Virus; note: nearly all actives have a fitted effect of over 50% in size
# Conditions: Lassa virus pseudotype entry inhibition, cell reporter; activity change, negative = inhibition: at 37.9 µM (top of the series) unless noted
# % is set by controls: 0 for no effect and ±100 for the full control effect; potency is the fitted concentration of half-maximal effect.
SMILES,Potency,"activity change, negative = inhibition"
CC(C)OC(=O)/C(=C\c1cccc2ccccc12)NC(=O)c1ccccc1,"inconclusive: 39.8 µM [inhibitor, partial curve, poor fit]",–
O=C(Nc1nc2ccccc2s1)c1ccc(S(=O)(=O)N2CCCC2)cc1,"inconclusive: 10 µM [activator, partial curve, poor fit]",–
CC(C)(C)c1ccc(/C=C2/SC(N3CCCC3)=NC2=O)cc1,"inconclusive: 7.08 µM [inhibitor, full curve, poor fit]",–
CN1C2CCC1CC(NS(=O)(=O)c1ccc(C#N)cc1)C2 (centres undefined),–,inactive: 7.61% [at 46.1 µM]
Cc1cc(C)cc(OCc2nc3ncc(Br)cc3[nH]2)c1,"inconclusive: 3.55 µM [inhibitor, partial curve]",–
O=C(Nc1cccnc1)c1cc(F)cc(F)c1,–,inactive: 16.4%
CCOC(=O)C(C)/C(C)=N/NC(=O)c1cc2ccccc2cc1O (centres undefined),"inconclusive: 31.6 µM [inhibitor, single point]",–
NC(=S)Nc1ccc(C(F)(F)F)cc1Cl,"inconclusive: 11.2 µM [inhibitor, partial curve, poor fit]",–
COC(=O)c1ccc(N=C2S/C(=C\c3cc(C)n(-c4cccnc4)c3C)C(=O)N2C)cc1,"inconclusive: 35.5 µM [inhibitor, single point]",–
CN=Cc1nc(-c2ccccc2)oc1O,"inconclusive: 0.501 µM [activator, partial curve, poor fit]",–
CC(=O)c1ccc(NC(=O)c2ccc(COc3ccccc3[N+](=O)[O-])o2)cc1,"inconclusive: 3.16 µM [inhibitor, full curve, poor fit]",–
O=C(Nc1ccccc1Br)C(Cc1ccccc1)NS(=O)(=O)c1cccc2nsnc12 (centres undefined),"inconclusive: 8.91 µM [inhibitor, single point]",–
COc1ccccc1/C=C/C(=O)c1cc(Br)ccc1OC(=O)c1ccco1,–,inactive: -5.66%
COc1ccc(Oc2ccc(/C=C/C(=O)c3cccc(OC)c3)cc2[N+](=O)[O-])cc1,"inconclusive: 17.8 µM [inhibitor, partial curve, poor fit]",–
Cc1ccccc1CN(c1ccc(C(=O)NCc2ccccn2)cc1)S(C)(=O)=O,–,inactive: 3.54% [at 46.1 µM]
Cc1cc2oc3c(c(=O)c2cc1C)C1(C(=O)N(C)c2ccccc21)N(CCO)C3=O (centres undefined),–,inactive: -1.18% [at 46.1 µM]
O=C(CSc1nc(O)cc(=O)n1-c1ccc(Cl)c(Cl)c1)Nc1ccc(Cl)cc1Cl,–,inactive: 5.13%
COc1cc(C(=O)OCCNC(=O)c2ccccc2)cc(OC)c1OC,"inconclusive: 39.8 µM [inhibitor, partial curve, poor fit]",–
O=C1[C@H]2[C@@H]3[C@@H](O)[C@H](O)CC(=NOCc4ccccc4)[C@H]3CC[C@H]2C(=O)N1C1CCCCC1,"inconclusive: 1.19 µM [activator, single point]",–

# In another format: entries from further up
SMILES | Potency | activity change, negative = inhibition
Cc1cc(C)cc(OCc2nc3ncc(Br)cc3[nH]2)c1 | inconclusive: 3.55 µM [inhibitor, partial curve] | –
O=C(Nc1cccnc1)c1cc(F)cc(F)c1 | – | inactive: 16.4%
CCOC(=O)C(C)/C(C)=N/NC(=O)c1cc2ccccc2cc1O (centres undefined) | inconclusive: 31.6 µM [inhibitor, single point] | –
NC(=S)Nc1ccc(C(F)(F)F)cc1Cl | inconclusive: 11.2 µM [inhibitor, partial curve, poor fit] | –
COC(=O)c1ccc(N=C2S/C(=C\c3cc(C)n(-c4cccnc4)c3C)C(=O)N2C)cc1 | inconclusive: 35.5 µM [inhibitor, single point] | –

# — PubChem BioAssay AID540256 (National Center for Advancing Translational Sciences (NCATS), 2011)
